# Reference: the supplement of paper PMC8728848
# The list shows a part of the results.
# B1: SAOUHSC 02783 (Staphylococcus aureus), Q5HD69 (protein)
# chain: MIHSKKLTLGICLVLLIILIVGYVIMTKTNGRNAQIKDTFNQTLKLYPTKNLDDFYDKEGFRDQEFKKGDKGTWIVNSEMVIEPKGKDMETRGMVLYINRNTRTTKGYYFISEMTDDSNGRPKDDEKRYPVKMEHNKIIPTKPLPNDKLKKEIENFKFFVQYGNFKDINDYKDGDISYNPNVPSYSAKYQLNNDDYNVQQLRKRYDIPTKQAPKLLLKGDGDLKGSSVGSRSLEFTFVENKEENIYFTDSVQYTPSEDTRYESN
# Columns and labels:
# Assay in all cases: glycan array binding signal (z-score within array); higher = stronger binding
# Conditions in all cases: glycan notation: IUPAC condensed, linker removed
# Fuc(a1-2)Gal = target: Fuc(a1-2)Gal
# Summary of the method: (§1)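 The binding signal is a Z-score computed within each array and averaged over linkers. Arrays of the same protein sequence at different concentrations or buffers were also averaged together. Data originate from 3228 arrays in the Consortium for Functional Glycomics database, kept only where the protein sequence was available.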
# Fuc(a1-2)Gal(b1-3)GalNAc = target: Fuc(a1-2)Gal(b1-3)GalNAc
# Summary of the method: as §1
# [1] = target: Fuc(a1-2)Gal(b1-3)GalNAc(a1-3)[Fuc(a1-2)]Gal(b1-4)Glc
# Summary of the method: as §1
# [2] = target: Fuc(a1-2)Gal(b1-3)GalNAc(a1-3)[Fuc(a1-2)]Gal(b1-4)GlcNAc
# Summary of the method: as §1
# [3] = target: Fuc(a1-2)Gal(b1-3)GalNAc(b1-3)Gal
# Summary of the method: as §1
# [4] = target: Fuc(a1-2)Gal(b1-3)GalNAc(b1-3)Gal(a1-4)Gal(b1-4)Glc
# Summary of the method: as §1
# [5] = target: Fuc(a1-2)Gal(b1-3)GalNAc(b1-4)[Neu5Ac(a2-3)]Gal(b1-4)Glc
# Summary of the method: as §1
# Fuc(a1-2)Gal(b1-3)GlcNAc = target: Fuc(a1-2)Gal(b1-3)GlcNAc
# Summary of the method: as §1
# [6] = target: Fuc(a1-2)Gal(b1-3)GlcNAc(b1-2)Man(a1-3)[Fuc(a1-2)Gal(b1-3)GlcNAc(b1-2)Man(a1-6)]Man(b1-4)GlcNAc(b1-4)GlcNAc
# Summary of the method: as §1
# [7] = target: Fuc(a1-2)Gal(b1-3)GlcNAc(b1-2)Man(a1-3)[Fuc(a1-2)Gal(b1-3)GlcNAc(b1-2)Man(a1-6)]Man(b1-4)GlcNAc(b1-4)[Fuc(a1-6)]GlcNAc
# Summary of the method: as §1
# [8] = target: Fuc(a1-2)Gal(b1-3)GlcNAc(b1-3)Gal(b1-4)Glc
# Summary of the method: as §1
# [9] = target: Fuc(a1-2)Gal(b1-3)GlcNAc(b1-3)GalNAc
# Summary of the method: as §1
# [10] = target: Fuc(a1-2)Gal(b1-3)GlcNAc(b1-3)[Fuc(a1-2)Gal(b1-3)GlcNAc(b1-6)]GalNAc
# Summary of the method: as §1
# [11] = target: Fuc(a1-2)Gal(b1-3)GlcNAc(b1-3)[Gal(b1-4)GlcNAc(b1-6)]Gal(b1-4)Glc
# Summary of the method: as §1
# [12] = target: Fuc(a1-2)Gal(b1-3)GlcNAc(b1-3)[Neu5Ac(a2-6)Gal(b1-4)GlcNAc(b1-6)]Gal(b1-4)Glc
# Summary of the method: as §1
# [13] = target: Fuc(a1-2)Gal(b1-3)GlcNAc6S
# Summary of the method: as §1
# [14] = target: Fuc(a1-2)Gal(b1-3)[Fuc(a1-4)]GlcNAc
# Summary of the method: as §1
# [15] = target: Fuc(a1-2)Gal(b1-3)[Fuc(a1-4)]GlcNAc(b1-2)Man(a1-3)[Fuc(a1-2)Gal(b1-3)[Fuc(a1-4)]GlcNAc(b1-2)Man(a1-3)]Man(b1-4)GlcNAc(b1-4)GlcNAc
# Summary of the method: as §1
# [16] = target: Fuc(a1-2)Gal(b1-3)[Fuc(a1-4)]GlcNAc(b1-2)Man(a1-3)[Fuc(a1-2)Gal(b1-3)[Fuc(a1-4)]GlcNAc(b1-2)Man(a1-6)]Man(b1-4)GlcNAc(b1-4)[Fuc(a1-6)]GlcNAc(b1-4)[Fuc(a1-6)]GlcNAc
# Summary of the method: as §1
# [17] = target: Fuc(a1-2)Gal(b1-3)[Fuc(a1-4)]GlcNAc(b1-3)[Fuc(a1-3)[Gal(b1-4)]GlcNAc(b1-6)]Gal(b1-4)Glc
# Summary of the method: as §1
# [18] = target: Fuc(a1-2)Gal(b1-3)[Fuc(a1-4)]GlcNAc(b1-3)[Gal(b1-4)GlcNAc(b1-6)]Gal(b1-4)Glc
# Summary of the method: as §1
# Fuc(a1-2)Gal(b1-4)Glc = target: Fuc(a1-2)Gal(b1-4)Glc
# Summary of the method: as §1
# Fuc(a1-2)Gal(b1-4)Glc6S = target: Fuc(a1-2)Gal(b1-4)Glc6S
# Summary of the method: as §1
# Fuc(a1-2)Gal(b1-4)GlcNAc = target: Fuc(a1-2)Gal(b1-4)GlcNAc
# Summary of the method: as §1
# [19] = target: Fuc(a1-2)Gal(b1-4)GlcNAc(b1-2)Man
# Summary of the method: as §1
# [20] = target: Fuc(a1-2)Gal(b1-4)GlcNAc(b1-2)Man(a1-3)[Fuc(a1-2)Gal(b1-4)GlcNAc(b1-2)Man(a1-6)]Man(b1-4)GlcNAc(b1-4)GlcNAc
# Summary of the method: as §1
# [21] = target: Fuc(a1-2)Gal(b1-4)GlcNAc(b1-2)Man(a1-3)[Fuc(a1-2)Gal(b1-4)GlcNAc(b1-2)Man(a1-6)]Man(b1-4)GlcNAc(b1-4)[Fuc(a1-6)]GlcNAc
# Summary of the method: as §1
# [22] = target: Fuc(a1-2)Gal(b1-4)GlcNAc(b1-2)[Fuc(a1-2)Gal(b1-4)GlcNAc(b1-4)]Man(a1-3)[Fuc(a1-2)Gal(b1-4)GlcNAc(b1-2)Man(a1-6)]Man(b1-4)GlcNAc(b1-4)GlcNAc
# Summary of the method: as §1
# [23] = target: Fuc(a1-2)Gal(b1-4)GlcNAc(b1-3)Gal(b1-4)GlcNAc
# Summary of the method: as §1
# [24] = target: Fuc(a1-2)Gal(b1-4)GlcNAc(b1-3)Gal(b1-4)GlcNAc(b1-2)Man(a1-3)[Fuc(a1-2)Gal(b1-4)GlcNAc(b1-3)Gal(b1-4)GlcNAc(b1-2)Man(a1-6)]Man(b1-4)GlcNAc(b1-4)GlcNAc
# Summary of the method: as §1
# [25] = target: Fuc(a1-2)Gal(b1-4)GlcNAc(b1-3)Gal(b1-4)GlcNAc(b1-3)Gal(b1-4)GlcNAc
# Summary of the method: as §1
# [26] = target: Fuc(a1-2)Gal(b1-4)GlcNAc(b1-3)GalNAc
# Summary of the method: as §1
# [27] = target: Fuc(a1-2)Gal(b1-4)GlcNAc(b1-3)[Fuc(a1-2)Gal(b1-4)GlcNAc(b1-6)]GalNAc
# Summary of the method: as §1
# [28] = target: Fuc(a1-2)Gal(b1-4)GlcNAc(b1-3)[Fuc(a1-3)[Gal(b1-4)]GlcNAc(b1-6)]Gal(b1-4)Glc
# Summary of the method: as §1
# [29] = target: Fuc(a1-2)Gal(b1-4)GlcNAc(b1-6)GalNAc
# Summary of the method: as §1
# [30] = target: Fuc(a1-2)Gal(b1-4)GlcNAc6S
# Summary of the method: as §1
# [31] = target: Fuc(a1-2)Gal(b1-4)[Fuc(a1-3)]GlcNAc
# Summary of the method: as §1
binder,measurement,setting,value
B1,glycan array binding signal (z-score),Fuc(a1-2)Gal,0.572
same,glycan array binding signal (z-score),Fuc(a1-2)Gal(b1-3)GalNAc,-0.714
same,glycan array binding signal (z-score),[1],-1.02
same,glycan array binding signal (z-score),[2],-1.12
same,glycan array binding signal (z-score),[3],0.119
same,glycan array binding signal (z-score),[4],0.489
same,glycan array binding signal (z-score),[5],0.071
same,glycan array binding signal (z-score),Fuc(a1-2)Gal(b1-3)GlcNAc,-0.076
same,glycan array binding signal (z-score),[6],0.299
same,glycan array binding signal (z-score),[7],2.61
same,glycan array binding signal (z-score),[8],-0.206
same,glycan array binding signal (z-score),[9],-0.771
same,glycan array binding signal (z-score),[10],2.12
same,glycan array binding signal (z-score),[11],1.13
same,glycan array binding signal (z-score),[12],-0.854
same,glycan array binding signal (z-score),[13],-1.79
same,glycan array binding signal (z-score),[14],-0.029
same,glycan array binding signal (z-score),[15],0.584
same,glycan array binding signal (z-score),[16],-0.125
same,glycan array binding signal (z-score),[17],-0.339
same,glycan array binding signal (z-score),[18],-0.055
same,glycan array binding signal (z-score),Fuc(a1-2)Gal(b1-4)Glc,-0.376
same,glycan array binding signal (z-score),Fuc(a1-2)Gal(b1-4)Glc6S,0.362
same,glycan array binding signal (z-score),Fuc(a1-2)Gal(b1-4)GlcNAc,-0.378
same,glycan array binding signal (z-score),[19],0.376
same,glycan array binding signal (z-score),[20],0.526
same,glycan array binding signal (z-score),[21],1.56
same,glycan array binding signal (z-score),[22],1.41
same,glycan array binding signal (z-score),[23],-1.87
same,glycan array binding signal (z-score),[24],-0.248
same,glycan array binding signal (z-score),[25],0.25
same,glycan array binding signal (z-score),[26],0.108
same,glycan array binding signal (z-score),[27],2.08
same,glycan array binding signal (z-score),[28],-0.255
same,glycan array binding signal (z-score),[29],-1.38
same,glycan array binding signal (z-score),[30],0.902
same,glycan array binding signal (z-score),[31],-0.193

# For reference, some entries already given.
binder,measurement,setting,value
B1,glycan array binding signal (z-score),[6],0.299
same,glycan array binding signal (z-score),[7],2.61
same,glycan array binding signal (z-score),[8],-0.206
